Assay: Optimal reaction temperature and pH to CPC
Assay type: biochemical
Description: Further, as a result of examining the optimal reaction temperature and pH of the wild-type CPC acylase AcyII, the optimal reaction temperature and pH to CPC were 40° C. and 9.0, respectively.

B1: Wild-type: Pseudomonas sp. SE83 derived wild-type CPC acylase (AcyII), α-subunit SEQ ID NO: 4 and β-subunit SEQ ID NO: 5, from pBCPC (protein)
alpha: TMAAKTDREALQAALPPLSGSLSIPGLSAPVRVQRDGWGIPHIKASGEADAYRALGFVHAQDRLFQMELTRRKALGRAAEWLGAEAAEADILVRRLGMEKVCRRDFEALGAEAKDMLRAYVAGVNAFLASGAPLPIEYGLLGAEPEPWEPWHSIAVMRRLGLLMGSVWFKLWRMLALPVVGAANALKLRYDDGGQDLLCIPPGVEAERLEADLAALRPAVDALLKAMGG
beta: SNNWAVAPGRTATGRPILAGDPHRVFEIPGMYAQHHLACDRFDMIGLTVPGVPGFPHFAHNGKVAYCVTHAFMDIHDLYLEQFAEDGRTARFGNEFEPVAWRRDRIAVRGGADREFDIVETRHGPVIAGDPLEGAALTLRSVQFAETDLSFDCLTRMPGASTVAQLYDATRGWGLIDHNLVAGDVAGSIGHLVRARVPSRPRENGWLPVPGWSGEHEWRGWIPHEAMPRVIDPPGGLIVTANNRVVADDHPDYLCTDCHPPYRAERIMERLVASPAFAVDDAAAIHADTLSPHVGLLRARLEALGIQGSLPAEELRQTLIAWDGRMDAGSQAASAYNAFRRALTRLVTARSGLEQAIAHPFAAVPPGVSPQGQVWWAVPTLLRNDDAGMLKGWSWDEALSEALSVATQNLTGRGWGEEHRPRFTHPLSAQFPAWAALLNPVSRPIGGDGDTVLANGLVPSAGPEATYGALSRYVFDVGNWDNSRWVVFHGASGHPASPHYADQNAPWSDCAMVPMLYSWDRIAAEAVTSQELVPA
modifications: Pseudomonas sp. SE83
optimal reaction pH to CPC: 9.0
optimal reaction temperature to CPC: 40 °C

Source: US7592168B2, “Cephalosporin C acylase mutant and method for preparing 7-ACA using same” (Sandoz AG, priority 2003, dated 2009)
